# Primary screen of a compound library

Protein sequences, listed by entry. Tags and fused reporters are not part of them.
UniProt P9WFT3, whole entry: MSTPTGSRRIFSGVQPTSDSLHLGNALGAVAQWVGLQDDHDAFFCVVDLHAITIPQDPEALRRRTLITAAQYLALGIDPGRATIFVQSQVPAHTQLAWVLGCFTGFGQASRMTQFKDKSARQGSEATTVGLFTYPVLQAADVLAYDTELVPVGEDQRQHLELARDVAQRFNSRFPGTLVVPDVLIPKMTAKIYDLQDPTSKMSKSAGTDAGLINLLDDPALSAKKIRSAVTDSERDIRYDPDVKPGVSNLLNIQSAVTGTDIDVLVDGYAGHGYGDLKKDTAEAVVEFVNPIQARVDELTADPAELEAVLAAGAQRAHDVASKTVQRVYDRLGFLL
UniProt P9WNZ1, whole entry: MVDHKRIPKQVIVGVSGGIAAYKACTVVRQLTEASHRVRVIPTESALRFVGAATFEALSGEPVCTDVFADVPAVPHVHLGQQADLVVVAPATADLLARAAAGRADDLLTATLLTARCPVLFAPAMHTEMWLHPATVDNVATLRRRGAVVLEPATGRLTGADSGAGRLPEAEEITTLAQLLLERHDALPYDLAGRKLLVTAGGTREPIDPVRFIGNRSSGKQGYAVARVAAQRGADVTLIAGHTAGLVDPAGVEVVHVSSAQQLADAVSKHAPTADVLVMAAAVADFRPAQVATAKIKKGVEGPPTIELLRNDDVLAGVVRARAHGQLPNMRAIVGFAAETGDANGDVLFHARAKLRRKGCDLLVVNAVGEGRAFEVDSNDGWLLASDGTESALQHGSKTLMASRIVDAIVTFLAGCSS
UniProt P9WPC5, whole entry: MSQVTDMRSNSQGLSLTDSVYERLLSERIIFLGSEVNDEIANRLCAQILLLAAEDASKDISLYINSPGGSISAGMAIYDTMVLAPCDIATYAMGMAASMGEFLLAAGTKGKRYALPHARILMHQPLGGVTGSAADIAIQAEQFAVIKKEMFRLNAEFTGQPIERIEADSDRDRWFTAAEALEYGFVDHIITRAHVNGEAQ
UniProt P9WPC3, whole entry partner: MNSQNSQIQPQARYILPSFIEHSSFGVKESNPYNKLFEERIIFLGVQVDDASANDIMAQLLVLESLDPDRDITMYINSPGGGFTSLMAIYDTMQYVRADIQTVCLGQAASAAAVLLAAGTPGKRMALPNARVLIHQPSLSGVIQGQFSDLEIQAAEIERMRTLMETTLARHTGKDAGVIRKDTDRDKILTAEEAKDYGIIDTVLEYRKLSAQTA

Source: ChEMBL document CHEMBL3988442, “University of Dundee, Small-Polar-MMV Screening Library” (2021).

Values are the deposited “Percent Effect”, in %. How 0% and 100% were set is not recorded. Most values in the screen are low, and negative values occur. The compounds are a random part of those screened.

A: 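Enzyme assay of tryptophanyl-tRNA synthetase; the read-out is not stated. Target: Tryptophan-tRNA ligase, Mycobacterium tuberculosis (UniProt P9WFT3). Tested at 10 µM. Higher most likely means stronger inhibition; the record gives no direction and few retests gave an IC50. Of about 65,000 compounds tested this way, about 64 (0.098%) reached 50% or more in at least one test.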
B: 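Coenzyme A biosynthesis protein CoaBC, Mycobacterium tuberculosis (UniProt P9WNZ1). Enzyme assay of CoaBC with a phosphate dye (Biomol Green) read at 650 nm. Compounds at 30 µM. Higher reads as stronger inhibition, judged from the few compounds that gave an IC50. Most strong results did not repeat in a second test. Size under these conditions: about 67,000 compounds, about 40 of them at 50% or above in at least one test.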
C: 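Protease assay of ClpP1P2, read by the AMC dye that it sets free. Target: ClpP1P2, Mycobacterium tuberculosis (UniProt P9WPC5 and UniProt P9WPC3). Concentration: 50 µM. Direction is inferred from only a few compounds that gave an IC50; most scored high, so higher reads as stronger inhibition. Most other retested compounds had strongly negative values. Size under these conditions: about 69,000 compounds, about 10 of them at 50% or above in at least one test.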

Cc1ccc(N2CCCN(C(=O)CCC3CCCO3)CC2)nn1 (stereo unspecified) gave A: -4.172%; B: 12.06%; C: -6.748%. With Cc1nc2n(n1)CC(Nc1ncnc3c1CCC3)CC2 (stereo unspecified) the screen gave A: -3.667%; B: -2.4%; C: -1.516%. CC(NC(=O)Nc1ccc(N2CCCC2)nc1)c1nncn1C (stereo unspecified) gave A: 1.412%; B: -4.307%; C: -34.6%. For O=C(Nc1cccnc1)[C@H]1CO[C@H]2CCN(c3ncc(F)cn3)C[C@H]2C1 the result was A: 2.833%; B: 1.904%; C: -1.003%. COC[C@@]12CCC[C@@H]1CN(C(=O)Cc1ccco1)C2 read A: -9.894%; B: 2.956%; C: -0.1153%. Result for CN(C)S(=O)(=O)NCC(O)c1cc2ccccc2s1 (stereo unspecified) was A: -2.478%; B: 2.037%; C: 1.873%. COCCN1CCO[C@H]2CN(Cc3cc[nH]n3)C[C@H]21 read B: 3.837%; C: 7.424%. O=C(c1cc2c(s1)CCCCC2)N1CCC(c2ncc[nH]2)CC1 read A: 0.3871%; B: 2.02%; C: 2.944%.

CN1CC2(CCN(C(=O)c3cccnc3)CC2)c2cccc(F)c21 gave B: 1.707%; C: -3.214%. CN(CCS(=O)(=O)c1cc(Cl)ccc1Cl)CC(N)=O gave A: -1.168%; B: 1.899%; C: 0.8908%. With COCC1(NC(=O)Nc2nc(C)ns2)CCCC1 the screen gave A: 0.5711%; B: -1.737%; C: -5.722%. Result for CN1CCc2[nH]nc(C(=O)N3CCCC4(CC3)CNC(=O)O4)c2C1 (stereo unspecified) was A: -4.19%; B: 4.225%; C: -0.1532%. For O=C1OCCN1CCNc1ncc2c(n1)CCN2c1ccccc1 the result was A: -5.717%; B: 10.3%; C: -1.698%. CN1CCN(C(=O)c2cccn2C)c2ccccc2C1 gave A: -0.722%; B: 1.434%; C: -9.6%. Result for O=C(CN1C(=O)CCC1=O)N1Cc2cncnc2C1 was A: -7.371%; B: -9.514%; C: -1.055%. For Cc1n[nH]c(C)c1CCNC(=O)C1CCCN(Cc2ccco2)C1 (stereo unspecified) the result was A: 15.78%; B: 6.723%; C: -3.957%.

Result for CCN(Cc1ccncc1)CC1(O)CCN(C(=O)c2cnn(C)c2)C1 (stereo unspecified) was A: -3.188%; B: -0.9732%; C: 2.664%. With C[C@@H]1CN(c2ccc3c(Cl)ccnc3c2F)CC(C(N)=O)O1 (stereo partly specified) the screen gave A: -1.032%; C: 2.866%. CN(C)C1Cc2ccccc2N(S(=O)(=O)c2ccccc2C#N)C1 (stereo unspecified) read A: -3.054%; B: 2.689%; C: 7.813%. Result for Cc1nc(N)cc(C2CN(C(=O)c3ccn(C)n3)CCO2)n1 (stereo unspecified) was A: -0.4181%; B: 3.611%; C: 2.746%. With COCc1cc(N(Cc2ccsc2)C2CC2)n2ncnc2n1 the screen gave A: -1.288%; B: 14.66%; C: -5.284%. With CC(=O)c1cccc(NC(=O)N(CCO)C2CCc3ccccc32)c1 (stereo unspecified) the screen gave A: 12.22%; B: 10.24%; C: 7.845%. Cc1cnc(C(=O)N2CCCCC2c2nc(C)cs2)cn1 (stereo unspecified) read A: -1.45%; B: 3.823%; C: -10.26%. With CC[C@H]1CN2CC[C@H]1C[C@@H]2CNCc1ccc2c(c1)OCO2 the screen gave A: 0.6777%; B: -18.28%; C: -4.919%.

CNC(=O)c1ccc(CNC(=O)NCCN(C)C2CCCC2)cc1 gave A: -7.91%; B: -7.8%; C: -15.13%. With Cc1cnc(NC(=O)c2cccc(CN(C)Cc3snnc3C)c2)s1 the screen gave A: 0.6717%; B: 13.17%; C: -5.91%. Result for CN(C)C(=O)c1cccc(NC(=O)Cc2cc(F)ccc2F)n1 was A: -1.188%; B: -1.935%; C: -2.145%. Result for Cc1cnn(CC2CCCN2c2nn3cc(C)nc3s2)c1 (stereo unspecified) was A: 0.09747%; B: 3.655%; C: 7.878%. With CC(C)CN1CCC(NC(=O)c2ccc(F)cc2I)CC1 the screen gave A: -0.3791%; B: 1.266%; C: -3.814%. Result for CC(=O)Nc1ccc2nn(C(C)C)cc2c1 was A: -1.273%; B: 0.9662%; C: -5.68%. Result for CCCc1nnsc1C(=O)N1CCN(CC(O)C2CC2)CC1 (stereo unspecified) was A: 13.91%; B: -8.245%; C: 5.549%. For Cn1c2c(ccc1=O)CC(Nc1ncc(F)cn1)CC2 (stereo unspecified) the result was A: -2.364%; B: 3.623%; C: 1.291%.

Cc1nnc([C@H]2C[C@H]3CN(C(=O)Cc4ccc(F)cc4)CC[C@@H]3O2)o1 read A: -3.189%; B: 1.232%; C: -0.1845%. Cc1noc(C)c1CNC(C(=O)N1CCOCC1)C(C)C (stereo unspecified) gave A: -2.573%; B: 0%; C: 4.858%. With CC(=O)N1CCc2cc(Cl)cc(Cl)c2C1 the screen gave A: 0.9684%; B: 3.553%; C: -20.72%. CN(Cc1ccncn1)C(=O)CCc1[nH]nc2c1CCCC2 read A: 1.566%; B: 1.481%; C: -19.34%.